Two substances from doi:10.1101/197186 (bioRxiv, 2017) can be followed below.

Protein sequences, listed by entry. Tags and fused reporters are not part of them. Lines headed by an entry give the natural chain unless they say otherwise; changes in a name come on top.
UniProt Q9Y6X9, whole entry, looked up, stated change not applied: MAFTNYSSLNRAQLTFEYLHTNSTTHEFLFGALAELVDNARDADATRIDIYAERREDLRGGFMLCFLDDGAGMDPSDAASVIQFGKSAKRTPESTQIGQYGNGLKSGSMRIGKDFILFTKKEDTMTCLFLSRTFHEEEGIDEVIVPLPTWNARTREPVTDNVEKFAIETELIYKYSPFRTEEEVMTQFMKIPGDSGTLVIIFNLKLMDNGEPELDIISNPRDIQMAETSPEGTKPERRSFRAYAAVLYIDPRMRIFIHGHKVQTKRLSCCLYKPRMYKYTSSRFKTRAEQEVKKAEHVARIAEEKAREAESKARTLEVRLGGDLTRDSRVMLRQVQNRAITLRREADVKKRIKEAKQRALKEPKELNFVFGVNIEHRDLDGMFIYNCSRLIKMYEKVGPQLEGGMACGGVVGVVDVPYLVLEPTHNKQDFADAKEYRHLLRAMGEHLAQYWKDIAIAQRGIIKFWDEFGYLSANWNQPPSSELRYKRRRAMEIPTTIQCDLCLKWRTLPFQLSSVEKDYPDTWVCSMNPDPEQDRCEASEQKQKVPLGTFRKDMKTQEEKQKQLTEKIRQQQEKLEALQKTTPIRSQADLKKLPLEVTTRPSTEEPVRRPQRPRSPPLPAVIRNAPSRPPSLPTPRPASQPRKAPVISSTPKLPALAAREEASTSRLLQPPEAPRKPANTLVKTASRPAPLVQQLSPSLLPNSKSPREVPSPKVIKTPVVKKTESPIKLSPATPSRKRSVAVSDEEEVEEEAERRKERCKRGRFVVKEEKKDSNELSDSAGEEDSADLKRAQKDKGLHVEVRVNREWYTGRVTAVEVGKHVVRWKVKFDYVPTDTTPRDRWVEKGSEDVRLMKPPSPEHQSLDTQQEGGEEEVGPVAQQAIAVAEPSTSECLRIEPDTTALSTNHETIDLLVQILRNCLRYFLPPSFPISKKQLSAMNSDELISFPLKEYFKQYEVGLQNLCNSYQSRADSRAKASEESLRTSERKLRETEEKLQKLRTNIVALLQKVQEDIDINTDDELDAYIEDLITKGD

These are yes or no findings as the source states them, for the method shown.

The target of test [1] is human MORC2(1-603) N39A (human) (UniProt Q9Y6X9). In words: SEC.
Test [2] addresses human MORC2(1-603) Y18A (human) (UniProt Q9Y6X9). In words: differential scanning fluorimetry. In general terms: Differential scanning fluorimetry follows unfolding on heating by fluorescence.

For the substance “human MORC2(1-603) N39A (from UniProt Q9Y6X9 1-603) (domain or fragment)”, the binding result in test [1] was “no binding”.

For “human MORC2(1-603) Y18A (from UniProt Q9Y6X9 1-603) (domain or fragment)”, the binding result in test [2] is “no binding”.
